No constants are given. Whether binding was seen depends on the method and setting. In cells and extracts the contact can be indirect. These calls come from enrichment with a bait or labelling near it, and not all partners need be listed. A no says only that the protein was not detected with the bait.

From publication PMC2747018 come the findings set out here.

The target in this assay is U1-A protein of the native human U1 snRNP (human (endogenous in HeLa)), P09012. Kind of assay: affinity purification with mass spectrometry; U1 snRNP immunoprecipitated from HeLa nuclear extract with an affinity-purified antibody against U1-A aa 1-14 on Protein A Sepharose (IP150: 20 mM Hepes pH 7.9, 150 mM NaCl, 1.5 mM MgCl2, 0.5 mM DTT, 3 h, 4°C), eluted with the antigenic peptide, 5-20% glycerol gradient; proteins identified by proteomic analysis and LC-MS of the denatured complex; the complex holds U1 …. To be noted: remark: other sources report otherwise.

B1: U2 snRNP-B'', P08579 1-225 (protein)
chain: MDIRPNHTIYINNMNDKIKKEELKRSLYALFSQFGHVVDIVALKTMKMRGQAFVIFKELGSSTNALRQLQGFPFYGKPMRIQYAKTDSDIISKMRGTFADKEKKKEKKKAKTVEQTATTTNKKPGQGTPNSANTQGNSTPNPQVPDYPPNYILFLNNLPEETNEMMLSMLFNQFPGFKEVRLVPGRHDIAFVEFENDGQAGAARDALQGFKITPSHAMKITYAKK
In the case of B1, the binding entry is given as “no binding”.
